Experimental data as given in US20150191543A1 (University of California, published 2015).
Results are given in words; binding and its absence hold for the method and conditions named. Some binding calls cover weakened binding; strength is not graded here. One block for each binder: values may come before it.

Amino acid sequences for entries named in this document (tags omitted). A change or cut given only in a name is not applied to a line headed by its entry. Residues count along the entry.
UniProt P01731: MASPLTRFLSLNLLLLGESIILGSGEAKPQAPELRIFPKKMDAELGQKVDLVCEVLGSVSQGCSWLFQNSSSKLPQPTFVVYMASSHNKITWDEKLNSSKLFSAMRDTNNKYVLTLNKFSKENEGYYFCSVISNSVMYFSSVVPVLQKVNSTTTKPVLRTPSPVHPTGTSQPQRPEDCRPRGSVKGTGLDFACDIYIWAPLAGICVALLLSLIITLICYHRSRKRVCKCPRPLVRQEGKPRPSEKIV
UniProt P10300, residues 22-213: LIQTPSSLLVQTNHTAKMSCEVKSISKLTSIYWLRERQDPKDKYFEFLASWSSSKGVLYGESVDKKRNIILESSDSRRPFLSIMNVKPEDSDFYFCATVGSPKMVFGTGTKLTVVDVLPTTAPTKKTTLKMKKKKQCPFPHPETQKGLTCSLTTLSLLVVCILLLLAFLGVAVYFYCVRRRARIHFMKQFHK

What was measured:
[1] = target: T1, mouse CD8α, Lyt2.2 allele (mouse, UniProt P01731 28-247); test: flow cytometry on BW58 cells (Lyt2.2+), detection with anti-mouse IgG2a-PE; control: secondary antibody only [left panel BW58]
T1 construct: On the cells it is paired with CD8β (BW58 is Lyt2.2+, Lyt3+); also called CD8a Lyt2.2; CD8-Lyt2.2

[2] = target: T1, mouse CD8α, Lyt2.2 allele; test: flow cytometry on cell lines
[3] = target: T1, mouse CD8α, Lyt2.2 allele; test: flow cytometry on BW58 cells
[4] = target: T1, mouse CD8α, Lyt2.2 allele; test: flow cytometry, FITC-2.43 minibody on primary cells of B/6 mice, compared with a commercial FITC-anti-CD8 antibody
[5] = target: T1, mouse CD8α, Lyt2.2 allele; test: flow cytometry on BW58 cells (Lyt2.2+), detection with goat anti-mouse IgG2a-PE
[6] = target: T1, mouse CD8α, Lyt2.2 allele; test: figure legend on epitope specificity
[7] = target: T1, mouse CD8α, Lyt2.2 allele; test: flow cytometry, FITC-2.43 minibody on primary cells of B/6 mice
[8] = target: T1, mouse CD8α, Lyt2.2 allele; test: flow cytometry on primary cells of B/6 (Lyt2.2+) mice, FITC-2.43 minibody with PE-anti-CD4
[9] = target: mouse CD8β (Lyt3) (mouse) (UniProt P10300); test: flow cytometry on cell lines
[10] = target: mouse CD8β (Lyt3) (mouse) (UniProt P10300); test: flow cytometry on BW58 cells (reduced compared with the other two minibodies) and on TK-1 cells
[11] = target: mouse CD8β (Lyt3) (mouse) (UniProt P10300); test: flow cytometry on BW58 cells (Lyt2.2+, Lyt3+), detection with goat anti-mouse IgG2a-PE
[12] = target: mouse CD8β (Lyt3) (mouse) (UniProt P10300); test: flow cytometry on TK-1 cells (Lyt2.1+, Lyt3+), detection with goat anti-mouse IgG2a-PE

binding [1]: binds
binding [2]: binds
binding [3]: binds
binding [4]: binds
binding [5]: binds
binding [6]: binds
binding [7]: binds
binding [8]: binds
B1: anti-mCD8 2.43 minibody (other)
scFv: EVQLVESGGGLVQPGRSLKLSCAASGFTFSNYYMAWVRQAPTKGLEWVAYINTGGGTTYYRDSVKGRFTISRDDAKSTLYLQMDSLRSEDTATYYCTTAIGYYFDYWGQGVMVTVSSGSTSGGGSGGGSGGGGSSDIQLTQSPASLSASLGETVSIECLASEDIYSYLAWYQQKPGKSPQVLIYAANRLQDGVPSRFSGSGSGTQYSLKISGMQPEDEGDYFCLQGSKFPYTFGAGTKLELKLEPRGPTIKPCPPCKCPAPNLLGGPGSVRAPQVYVLPPPEEEMTKKQVTLTCMVTDFMPEDIYVEWTNNGKTELNYKNTEPVLDSDGSYFMYSKLRVEKKNWVERNSYSCSVVHEGLHNYHTTKSFSRTPGKAAAAGHLPETGAGHHHHHHAAA
notes: Minibody (scFv-hinge-CH3 homodimer, about 80 kDa; 19% higher multimers); Some assays used the NOTA/64Cu-labelled or FITC-labelled protein

binding [9]: binds
binding [10]: binds
binding [11]: binds
binding [12]: binds
B2: anti-mCD8 YTS 156 minibody (protein)
scFv: EVKLQESGPSLVQPSQTLSLTCSVSGFSLISDSVHWVRQPPGKGLEWMGGIWADGSTDYNSALKSRLSISRDTSKSQGFLKMNSLQTDDTAIYFCTSNRESYYFDYWGQGVMVTVSSGSTSGGGSGGGSGGGGSSDIQMTQSPASLSASLGDKVTITCQASQNIDKYIAWYQQKPGKAPRQLIHYTSTLVSGTPSRFSGSGSGRDYSFSISSVESEDIASYYCLQYDTLYTFGAGTKLELKLEPRGPTIKPCPPCKCPAPNLLGGPGSVRAPQVYVLPPPEEEMTKKQVTLTCMVTDFMPEDIYVEWTNNGKTELNYKNTEPVLDSDGSYFMYSKLRVEKKNWVERNSYSCSVVHEGLHNYHTTKSFSRTPGKAAAAGHLPETGAGHHHHHHAAA
